Among the data in patent publication US4658016 (dated 1987) are step yield values, retold here.

The first data set is described as follows: general procedure: solution-phase peptide synthesis; DCC/HOObt with N-ethylmorpholine; Z-Arg(Z2)-OTcp active ester with HOBt. To be noted: coupling step, acetate.
Consider “Z--Arg(Z2)--Lys(Z)--D--Aad(OBzl)--Val--OBu^t”, for which the step yield is listed as 68.3%.
Still for that read-out and setting: under “Z--Arg(Z2)--Lys(Z)--D--Aad(OBzl)--Val--Trp cyclohexyl ester” stands 83.3%; under “Z--Arg(Z2)--Lys(Z)--D--Aad(OBzl)--Val--Trp isobutylamide”, 85.6%; under “Z--Arg(Z2)--Lys(Z)--D--Aad(OBzl)--Val--Tyr--OBzl”, 88.4%.
“Z--Arg(Z2)--Lys(Z)--D--Aad(OBzl)Val--Trp--OBzl” yielded a step yield of 84.2%.
With “Z--Arg(Z2)--Lys(Z)--Glu(OBzl)--Val--OBu^t”, the step yield came out at 91%.
Same read-out and setting: under “Z--Arg(Z2)--Lys(Z)--Glu(OBzl)--Val--Trp cyclohexyl ester” stands 86%; under “Z--Arg(Z2)--Lys(Z)--Glu(OBzl)--Val--Trp--OBzl”, 81.3%.

Still in this data set, the particulars now being: late stage modification step, acetate.
For the substance “Z--Arg(Z2)--Lys(Z)--D--Aad(OBzl)--Val--OH”, the step yield was determined as 74.3%.
The same measure, in the same setting: under Z--Arg(Z2)--Lys(Z)--Glu(OBzl)--Val--OH stands 83.2%.

Still in this data set, the particulars now being: late stage modification step, diacetate.
On to “Arg--Lys--Glu--Val--Trp cyclohexyl ester diacetate”, for which the step yield is listed as 44%.
On the same count and under the same terms, under “Arg--Lys--Glu--Val--Trp isobutylamide diacetate” stands 46%.
